Values from PubChem BioAssay AID686943 (Drosophila RNAi Screening Center, 2013).
Purpose: 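Search across the genome for regulators of signalling from receptor tyrosine kinase to ERK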 (primary screen). System: Drosophila S2R+ haemocyte-like cells expressing YFP-tagged ERK (Rolled). Reagents: long dsRNA against Drosophila genes. Challenge: insulin stimulation versus unstimulated cells; dose and duration not given. Measured: 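Per-plate z-scores of phospho-ERK immunostaining normalised to YFP-tagged ERK, measured with and without insulin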. Direction: replicate 1, z-score of dpERK with insulin and replicate 2, z-score of dpERK with insulin: higher = more active ERK per ERK-YFP after insulin; replicate 1, z-score of dpERK under basal conditions: higher = more basal active ERK per ERK-YFP; replicate 1, z-score of ERK-YFP with insulin: higher = more YFP-tagged ERK signal.
The deposit covers about 23,000 reagents; shown is an unselected part of those with a known target gene and a result. 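Extra replicates exist only for a retested subset of genes; insulin dose and duration not given; both raised and lowered dpERK matter.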 Reagents against one gene are numbered here. A plus sign joins genes that one reagent is predicted to hit. The record does not give: the amount of reagent, the time to read-out.

| gene | reagent | replicate 1, z-score of dpERK with insulin | replicate 2, z-score of dpERK with insulin | replicate 1, z-score of dpERK under basal conditions | replicate 1, z-score of ERK-YFP with insulin |
| --- | --- | --- | --- | --- | --- |
| Glg1 | 1 | 0.05 | -0.47 | -1.16 | 0.71 |
| Glg1 | 2 | 0.49 | 0.58 | -0.31 | -0.15 |
| Glg1 | 3 | 0.02 | -0.13 | 1.76 | 0.45 |
| CG15814 | 1 | -0.72 | -0.17 | -2.48 | -0.59 |
| nec | 1 | 0.04 | 0.06 | -0.48 | -0.01 |
| Or10a | 1 | -0.03 | 0.43 | 1.55 | 0.24 |
| CG43106 | 1 | -0.33 | 0.18 | -0.98 | 0.85 |
| CG18249 | 1 | -0.08 | -0.06 | 0.42 | -1.61 |
| Cpr97Eb | 1 | 0.49 | -0.18 | -0.9 | -0.36 |
| Vajk1 | 1 | 0.15 | 0.41 | 1.06 | 0.5 |
| CG8389 | 1 | 0.38 | 0.15 | -0.41 | -0.34 |
| CG8389 | 2 | 0.5 | 0.73 | 1.51 | -0.29 |
| Cpr30F | 1 | 0.52 | 0.45 | -0.02 | 0.75 |
| CG1239 | 1 | -0.16 | 0.4 | -0.1 | -0.07 |
| CG31886 | 1 | 0.19 | 0.86 | 0.68 | 0.57 |
| CG6426 | 1 | 0.42 | 0.84 | 1.13 | -0.07 |
| Mer | 1 | 0.33 | 1.36 | 0.86 | 0.19 |
| Tre1 | 1 | -0.8 | 0.36 | -0.32 | -1.02 |
| CG8671 | 1 | 0.05 | -0.21 | 0.33 | 0.5 |
| CG8671 | 2 | -1.05 | -0.21 | -0.39 | -0.54 |
| CR11235 | 1 | -0.15 | 0.02 | 0.36 | 0.56 |
| Abcd3 | 1 | -0.75 | -0.26 | 1.27 | -0.88 |
| CR1075 | 1 | 0.28 | 0.44 | 0.38 | -0.09 |
| CG15385 | 1 | 0.24 | 0.59 | 0.94 | -0.23 |
| Eaf | 1 | -0.09 | 1.67 | -0.48 | -0.42 |
| Eaf | 2 | 0.97 | 0.35 | -0.07 | -1.12 |
| Eaf | 3 | 0.28 | -0.43 | -0.42 | -0.87 |
| l(2)37Cd | 1 | -0.25 | -0.2 | -0.57 | 0.56 |
| CG31804 | 1 | -0.22 | -0.07 | -0.34 | 0.57 |
| CG13171 | 1 | 0.51 | -0.44 | -0.26 | 0.01 |
| CG10559 | 1 | -0.05 | 1.09 | 0.42 | 0.31 |
| CG14354 | 1 | -0.23 | -1.45 | -0.53 | -0.5 |
| CG8142 | 1 | 0.37 | 0.8 | -1.1 | -0.41 |
| CG1889 | 1 | 0.13 | 0.49 | 0.78 | 0.07 |
| BBS8 | 1 | 0.72 | -0.1 | 0.38 | -0.55 |
| CG4956 | 1 | 0.25 | -0.15 | -0.41 | 0.1 |
| wg | 1 | -0.01 | 0.16 | -0.13 | 0.96 |
| CG3999 | 1 | 0.34 | 0.22 | 0.76 | 0.3 |
| Golgin84 | 1 | -0.51 | 0 | 0.03 | 0.6 |
| APC4 | 1 | 0.55 | -0.16 | 0.58 | 0.12 |
| Nf-YC | 1 | -1.72 | -2.6 | -3.29 | -3.57 |
| 128up | 1 | -0.14 | -0.16 | 0.67 | -0.57 |
| CG8562 | 1 | -0.19 | 0.27 | 0.48 | -0.11 |
| CG5793 + Obp93a | 1 | 0.94 | 0.26 | -0.16 | -0.31 |
| CG13358 | 1 | 0.07 | 0.69 | 0.07 | 0.7 |
| CG7650 | 1 | -0.21 | 0.56 | 1.34 | 0.1 |
| Nhe2 | 1 | -0.48 | 0.45 | 0.91 | 0.02 |
| Nhe2 | 2 | -1.74 | -0.93 | -0.8 | 0.8 |
| Ibf2 | 1 | 0.65 | 0.76 | 0.88 | -0.45 |
| CG3857 | 1 | -0.57 | -0.94 | -1.84 | -0.58 |
| Tsp42Ec | 1 | 0.53 | -0.11 | -1.6 | 0.02 |
| CG18371 | 1 | -0.11 | 0.82 | 0.57 | 0.73 |
| ssp | 1 | -2.02 | 0.13 | -0.97 | -0.95 |
| ATPsynD | 1 | -2.91 | 0.19 | -0.57 | 0.38 |
| Tcs3 | 1 | 0.39 | -0.06 | 0.5 | 0.68 |
| tim | 1 | 0.04 | 1.05 | -0.47 | 0.24 |
| PGRP-LA | 1 | 0.05 | -0.05 | -0.28 | 0.54 |
| PGRP-LA | 2 | 0.1 | -0.07 | -0.9 | -0.6 |

4 of these entries, reformatted.
{"gene": "BBS8", "reagent": 1, "replicate 1, z-score of dpERK with insulin": 0.72, "replicate 2, z-score of dpERK with insulin": -0.1, "replicate 1, z-score of dpERK under basal conditions": 0.38, "replicate 1, z-score of ERK-YFP with insulin": -0.55}
{"gene": "CG4956", "reagent": 1, "replicate 1, z-score of dpERK with insulin": 0.25, "replicate 2, z-score of dpERK with insulin": -0.15, "replicate 1, z-score of dpERK under basal conditions": -0.41, "replicate 1, z-score of ERK-YFP with insulin": 0.1}
{"gene": "wg", "reagent": 1, "replicate 1, z-score of dpERK with insulin": -0.01, "replicate 2, z-score of dpERK with insulin": 0.16, "replicate 1, z-score of dpERK under basal conditions": -0.13, "replicate 1, z-score of ERK-YFP with insulin": 0.96}
{"gene": "CG3999", "reagent": 1, "replicate 1, z-score of dpERK with insulin": 0.34, "replicate 2, z-score of dpERK with insulin": 0.22, "replicate 1, z-score of dpERK under basal conditions": 0.76, "replicate 1, z-score of ERK-YFP with insulin": 0.3}
